# Results from the supplement of paper PMC8728848.
# This is one part of the list.
# B1: Eosinophil-derived neurotoxin (EDN) (Homo sapiens), P10153 (protein)
# chain: MVPKLFTSQICLLLLLGLLAVEGSLHVKPPQFTWAQWFETQHINMTSQQCTNAMQVINNYQRRCKNQNTFLLTTFANVVNVCGNPNMTCPSNKTRKNCHHSGSQVPLIHCNLTTPSPQNISNCRYAQTPANMFYIVACDNRDQRRDPPQYPVVPVHLDRII
# What was measured:
# Experiment in all cases: glycan array binding signal (z-score within array); higher = stronger binding
# Settings in all cases: glycan notation: IUPAC condensed, linker removed
# [1] = target: Fuc(a1-2)[Gal(a1-3)]Gal(b1-4)Glc
# Summary of the method: (§1)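 Glycan array data were curated from 3228 arrays in the Consortium for Functional Glycomics database and kept only where the protein sequence was available. Glycan names were converted to IUPAC-condensed notation, and columns mapping to the same glycan were averaged. The binding signal is a within-array Z-score, averaged across arrays of the same protein sequence at different concentrations or buffers and across linkers. Negative Z-scores can be read as non-binding.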
# [2] = target: Fuc(a1-2)[Gal(a1-3)]Gal(b1-4)GlcNAc
# Summary of the method: as §1
# [3] = target: Fuc(a1-2)[Gal(a1-3)]Gal(b1-4)GlcNAc(b1-2)Man(a1-3)[Fuc(a1-2)[Gal(a1-3)]Gal(b1-4)GlcNAc(b1-2)Man(a1-6)]Man(b1-4)GlcNAc(b1-4)GlcNAc
# Summary of the method: as §1
# [4] = target: Fuc(a1-2)[Gal(a1-3)]Gal(b1-4)GlcNAc(b1-2)Man(a1-3)[Fuc(a1-2)[Gal(a1-3)]Gal(b1-4)GlcNAc(b1-2)Man(a1-6)]Man(b1-4)GlcNAc(b1-4)[Fuc(a1-6)]GlcNAc
# Summary of the method: as §1
# [5] = target: Fuc(a1-2)[Gal(a1-3)]Gal(b1-4)GlcNAc(b1-3)GalNAc
# Summary of the method: as §1
# [6] = target: Fuc(a1-2)[Gal(a1-3)]Gal(b1-4)[Fuc(a1-3)]Glc
# Summary of the method: as §1
# [7] = target: Fuc(a1-2)[Gal(a1-3)]Gal(b1-4)[Fuc(a1-3)]GlcNAc
# Summary of the method: as §1
# [8] = target: Fuc(a1-2)[Gal(a1-3)]Gal(b1-4)[Fuc(a1-3)]GlcNAc(b1-3)GalNAc
# Summary of the method: as §1
# [9] = target: Fuc(a1-2)[Gal(a1-4)]Gal(b1-4)GlcNAc
# Summary of the method: as §1
# [10] = target: Fuc(a1-2)[GalNAc(a1-3)]Gal
# Summary of the method: as §1
# [11] = target: Fuc(a1-2)[GalNAc(a1-3)]Gal(b1-3)GalNAc(a1-3)[Fuc(a1-2)]Gal(b1-4)GlcNAc
# Summary of the method: as §1
# [12] = target: Fuc(a1-2)[GalNAc(a1-3)]Gal(b1-3)GlcNAc
# Summary of the method: as §1
# [13] = target: Fuc(a1-2)[GalNAc(a1-3)]Gal(b1-3)GlcNAc(b1-2)Man(a1-3)[Fuc(a1-2)[GalNAc(a1-3)]Gal(b1-3)GlcNAc(b1-2)Man(a1-6)]Man(b1-4)GlcNAc(b1-4)GlcNAc
# Summary of the method: as §1
# [14] = target: Fuc(a1-2)[GalNAc(a1-3)]Gal(b1-3)GlcNAc(b1-2)Man(a1-3)[Fuc(a1-2)[GalNAc(a1-3)]Gal(b1-3)GlcNAc(b1-2)Man(a1-6)]Man(b1-4)GlcNAc(b1-4)[Fuc(a1-6)]GlcNAc
# Summary of the method: as §1
# [15] = target: Fuc(a1-2)[GalNAc(a1-3)]Gal(b1-3)GlcNAc(b1-3)GalNAc
# Summary of the method: as §1
# [16] = target: Fuc(a1-2)[GalNAc(a1-3)]Gal(b1-4)Glc
# Summary of the method: as §1
# [17] = target: Fuc(a1-2)[GalNAc(a1-3)]Gal(b1-4)GlcNAc
# Summary of the method: as §1
# [18] = target: Fuc(a1-2)[GalNAc(a1-3)]Gal(b1-4)GlcNAc(b1-2)Man(a1-3)[Fuc(a1-2)[GalNAc(a1-3)]Gal(b1-4)GlcNAc(b1-2)Man(a1-6)]Man(b1-4)GlcNAc(b1-4)GlcNAc
# Summary of the method: as §1
# [19] = target: Fuc(a1-2)[GalNAc(a1-3)]Gal(b1-4)GlcNAc(b1-2)Man(a1-3)[Fuc(a1-2)[GalNAc(a1-3)]Gal(b1-4)GlcNAc(b1-2)Man(a1-6)]Man(b1-4)GlcNAc(b1-4)[Fuc(a1-6)]GlcNAc
# Summary of the method: as §1
# [20] = target: Fuc(a1-2)[GalNAc(a1-3)]Gal(b1-4)GlcNAc(b1-3)Gal(b1-4)GlcNAc
# Summary of the method: as §1
# [21] = target: Fuc(a1-2)[GalNAc(a1-3)]Gal(b1-4)GlcNAc(b1-3)Gal(b1-4)GlcNAc(b1-3)Gal(b1-4)GlcNAc
# Summary of the method: as §1
# [22] = target: Fuc(a1-2)[GalNAc(a1-3)]Gal(b1-4)GlcNAc(b1-3)GalNAc
# Summary of the method: as §1
# [23] = target: Fuc(a1-2)[GalNAc(a1-3)]Gal(b1-4)[Fuc(a1-3)]GlcNAc
# Summary of the method: as §1
# [24] = target: Fuc(a1-2)[GalNAc(a1-3)]Gal(b1-4)[Fuc(a1-3)]GlcNAc(b1-3)GalNAc
# Summary of the method: as §1
# [25] = target: Fuc(a1-2)[GalNAc(a1-4)]Gal(b1-4)GlcNAc
# Summary of the method: as §1
# [26] = target: Fuc(a1-2)[GalNAc(b1-3)]Gal
# Summary of the method: as §1
# Fuc(a1-3)GlcNAc = target: Fuc(a1-3)GlcNAc
# Summary of the method: as §1
# [27] = target: Fuc(a1-3)[Gal(b1-4)]Glc6S
# Summary of the method: as §1
# [28] = target: Fuc(a1-3)[Gal(b1-4)]GlcNAc
# Summary of the method: as §1
# [29] = target: Fuc(a1-3)[Gal(b1-4)]GlcNAc(b1-2)Man(a1-3)[Fuc(a1-3)[Gal(b1-4)]GlcNAc(b1-2)Man(a1-6)]Man(b1-4)GlcNAc(b1-4)GlcNAc
# Summary of the method: as §1
# [30] = target: Fuc(a1-3)[Gal(b1-4)]GlcNAc(b1-2)Man(a1-3)[Fuc(a1-3)[Gal(b1-4)]GlcNAc(b1-2)Man(a1-6)]Man(b1-4)GlcNAc(b1-4)[Fuc(a1-6)]GlcNAc
# Summary of the method: as §1
# [31] = target: Fuc(a1-3)[Gal(b1-4)]GlcNAc(b1-3)Gal(b1-3)[Fuc(a1-4)]GlcNAc
# Summary of the method: as §1
# [32] = target: Fuc(a1-3)[Gal(b1-4)]GlcNAc(b1-3)GalNAc
# Summary of the method: as §1
# [33] = target: Fuc(a1-3)[Gal(b1-4)]GlcNAc(b1-4)Gal(b1-4)[Fuc(a1-3)]GlcNAc
# Summary of the method: as §1
# [34] = target: Fuc(a1-3)[Gal(b1-4)]GlcNAc(b1-4)Gal(b1-4)[Fuc(a1-3)]GlcNAc(b1-4)Gal(b1-4)[Fuc(a1-3)]GlcNAc
# Summary of the method: as §1
# [35] = target: Fuc(a1-3)[Gal(b1-4)]GlcNAc(b1-6)GalNAc
# Summary of the method: as §1
# [36] = target: Fuc(a1-3)[Gal(b1-4)]GlcNAc(b1-6)[Gal(b1-3)GlcNAc(b1-3)]Gal(b1-4)Glc
# Summary of the method: as §1
# [37] = target: Fuc(a1-3)[Gal(b1-4)]GlcNAc(b1-6)[Neu5Ac(a2-3)Gal(b1-3)]GalNAc
# Summary of the method: as §1
# [38] = target: Fuc(a1-3)[Gal(b1-4)]GlcNAc6S
# Summary of the method: as §1
# [39] = target: Fuc(a1-3)[Gal3S(b1-4)]GlcNAc
# Summary of the method: as §1
# [40] = target: Fuc(a1-3)[Gal3S(b1-4)]GlcNAc6S
# Summary of the method: as §1
# [41] = target: Fuc(a1-3)[GalNAc(b1-4)]GlcNAc
# Summary of the method: as §1
# Fuc(a1-4)GlcNAc = target: Fuc(a1-4)GlcNAc
# Summary of the method: as §1
# Fuc(b1-3)GlcNAc = target: Fuc(b1-3)GlcNAc
# Summary of the method: as §1
# Gal(a1-2)Gal = target: Gal(a1-2)Gal
# Summary of the method: as §1
binder,measurement,setting,value
B1,glycan array binding signal (z-score),[1],-0.364
same,glycan array binding signal (z-score),[2],0.467
same,glycan array binding signal (z-score),[3],-0.184
same,glycan array binding signal (z-score),[4],-0.229
same,glycan array binding signal (z-score),[5],-0.523
same,glycan array binding signal (z-score),[6],-0.193
same,glycan array binding signal (z-score),[7],-0.157
same,glycan array binding signal (z-score),[8],-0.276
same,glycan array binding signal (z-score),[9],-0.308
same,glycan array binding signal (z-score),[10],0.012
same,glycan array binding signal (z-score),[11],0.187
same,glycan array binding signal (z-score),[12],-0.146
same,glycan array binding signal (z-score),[13],0.308
same,glycan array binding signal (z-score),[14],0.081
same,glycan array binding signal (z-score),[15],-0.067
same,glycan array binding signal (z-score),[16],0.286
same,glycan array binding signal (z-score),[17],-0.196
same,glycan array binding signal (z-score),[18],0.194
same,glycan array binding signal (z-score),[19],-0.173
same,glycan array binding signal (z-score),[20],0.43
same,glycan array binding signal (z-score),[21],-0.234
same,glycan array binding signal (z-score),[22],0.483
same,glycan array binding signal (z-score),[23],-0.395
same,glycan array binding signal (z-score),[24],-0.24
same,glycan array binding signal (z-score),[25],-0.107
same,glycan array binding signal (z-score),[26],0.098
same,glycan array binding signal (z-score),Fuc(a1-3)GlcNAc,0.151
same,glycan array binding signal (z-score),[27],0.452
same,glycan array binding signal (z-score),[28],-0.242
same,glycan array binding signal (z-score),[29],0.481
same,glycan array binding signal (z-score),[30],-0.265
same,glycan array binding signal (z-score),[31],0.062
same,glycan array binding signal (z-score),[32],0.511
same,glycan array binding signal (z-score),[33],-0.868
same,glycan array binding signal (z-score),[34],-0.17
same,glycan array binding signal (z-score),[35],-0.97
same,glycan array binding signal (z-score),[36],-0.086
same,glycan array binding signal (z-score),[37],0.247
same,glycan array binding signal (z-score),[38],0.272
same,glycan array binding signal (z-score),[39],0.4
same,glycan array binding signal (z-score),[40],-0.212
same,glycan array binding signal (z-score),[41],0.494
same,glycan array binding signal (z-score),Fuc(a1-4)GlcNAc,-0.114
same,glycan array binding signal (z-score),Fuc(b1-3)GlcNAc,-0.332
same,glycan array binding signal (z-score),Gal(a1-2)Gal,-0.368

# Copied from above (2 entries):
binder,measurement,setting,value
B1,glycan array binding signal (z-score),Fuc(b1-3)GlcNAc,-0.332
same,glycan array binding signal (z-score),Gal(a1-2)Gal,-0.368
